Article PMC11277097, “MRAP2a Binds and Modulates Activity and Localisation of Prokineticin Receptor 1 in Zebrafish” (International Journal of Molecular Sciences, 2024)

By UniProt entry, the sequences of proteins in these tests, tags left out. Where a name states a change or a piece, a line headed by the entry shows the natural chain unless it says otherwise.
UniProt D3TZW3: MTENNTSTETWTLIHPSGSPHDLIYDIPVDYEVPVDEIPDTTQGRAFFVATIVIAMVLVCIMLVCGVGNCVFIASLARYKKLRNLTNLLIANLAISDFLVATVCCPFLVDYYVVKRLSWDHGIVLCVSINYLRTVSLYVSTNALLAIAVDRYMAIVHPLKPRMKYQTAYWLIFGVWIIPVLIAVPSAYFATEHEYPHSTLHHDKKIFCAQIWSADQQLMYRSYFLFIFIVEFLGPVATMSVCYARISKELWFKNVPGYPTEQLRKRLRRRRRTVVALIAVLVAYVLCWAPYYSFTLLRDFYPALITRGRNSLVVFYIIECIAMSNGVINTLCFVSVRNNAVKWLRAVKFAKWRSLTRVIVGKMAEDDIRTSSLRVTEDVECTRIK

Columns and labels:
[1] = biological target: zPKR1-NT-GST fusion protein (N-terminal region of zebrafish PKR1 fused with GST) (zebrafish); assay: pull-down; GST fusion protein on glutathione-Sepharose beads, buffer A (PBS, 1% Nonidet P 40, 1 mM EDTA), incubated 4 h with the purified His-tagged CT domain; eluted with GSH; blot with anti-His; both purified
[2] = biological target: FLAG-tagged zebrafish prokineticin receptor 1 (zPKR1-FLAG) (zebrafish) (UniProt D3TZW3); assay: co-IP; solubilised membranes of CHO cells co-expressing zPKR1-FLAG and His-tagged MRAP2; precipitated with FLAG-binding resin; blot with anti-His and anti-FLAG
[3] = biological target: FLAG-tagged zebrafish prokineticin receptor 1 (zPKR1-FLAG) (zebrafish) (UniProt D3TZW3); assay: cross-linking; CHO cells transiently co-transfected, 24 h later incubated at room temperature with 2 mM dithiobis(succinimidyl propionate); SDS-PAGE, blot with anti-His

binding [1] | binding [2] | binding [3] | Binder
binds | – | – | C-terminal domain of zebrafish MRAP2a, His-tagged (zCT-MRAP2a) (domain or fragment, UniProt F8W4H9 73-217, looked up, zebrafish MRAP2a, C-terminal domain, the region from residue 73 to residue 217 encoded by the third exon; cloned by PCR from plasmid XM_021473026.1 into pet28; also called zCT-MRAP2a domain; pet 28zCT-MRAP2; source: E. coli, purified (His-tagged protein purification kit)) EAAEPYEKRMRLTSCADGLGRQRETDGRTGLSRPLLEESRSLFHCYINEEEREGGRAATDAGALTHGRSGIGNSRGQVEEVGLVVQNMVLESRAEREAALLAHFNIPNFVNSELNSALGDEDLLLGDPPIIMEEARPRCTHHIID
– | binds | binds | His-tagged zebrafish MRAP2a (zMRAP2a-His) (protein, UniProt F8W4H9 1-217) MPRFQLSNSTSVPNHNYEWSYEYYDDEEPVSFEGLKAHRYSIVIGFWVGLAVFVIFMFFVLTLLTKTGAPHPEAAEPYEKRMRLTSCADGLGRQRETDGRTGLSRPLLEESRSLFHCYINEEEREGGRAATDAGALTHGRSGIGNSRGQVEEVGLVVQNMVLESRAEREAALLAHFNIPNFVNSELNSALGDEDLLLGDPPIIMEEARPRCTHHIID
– | binds | binds | His-tagged human MRAP2 (hMRAP2-His) (protein, UniProt Q96G30 1-205) MSAQRLISNRTSQQSASNSDYTWEYEYYEIGPVSFEGLKAHKYSIVIGFWVGLAVFVIFMFFVLTLLTKTGAPHQDNAESSEKRFRMNSFVSDFGRPLEPDKVFSRQGNEESRSLFHCYINEVERLDRAKACHQTTALDSDVQLQEAIRSSGQPEEELNRLMKFDIPNFVNTDQNYFGEDDLLISEPPIVLETKPLSQTSHKDLD

These are yes or no findings as the source states them, for the method shown. A result given as binding can be weak or reduced; the word gives no strength. Sequences can lack the tags named with a protein. For some assays here: Binding seen in cells or lysates may run through a third protein.
